Results are given in words; binding and its absence hold for the method and conditions named. In cells and extracts the contact can be indirect. Some entries that bind do so weakly or less than the wild type.
Target: PRDM15 (human (endogenous in HCT116)) (UniProt P57071)
Assay: co-IP; lysates of irradiated (8 Gy) HCT116 cells; immunoprecipitation with PRDM15 specific antibody (Pierce Co-Immunoprecipitation Kit), immunoblot for DNA-PKcs, Ku70, Ku80; binding said to increase at 0.5 h after IR

Protein sequences, listed by entry. Tags and fused reporters are not part of them.
UniProt P78527: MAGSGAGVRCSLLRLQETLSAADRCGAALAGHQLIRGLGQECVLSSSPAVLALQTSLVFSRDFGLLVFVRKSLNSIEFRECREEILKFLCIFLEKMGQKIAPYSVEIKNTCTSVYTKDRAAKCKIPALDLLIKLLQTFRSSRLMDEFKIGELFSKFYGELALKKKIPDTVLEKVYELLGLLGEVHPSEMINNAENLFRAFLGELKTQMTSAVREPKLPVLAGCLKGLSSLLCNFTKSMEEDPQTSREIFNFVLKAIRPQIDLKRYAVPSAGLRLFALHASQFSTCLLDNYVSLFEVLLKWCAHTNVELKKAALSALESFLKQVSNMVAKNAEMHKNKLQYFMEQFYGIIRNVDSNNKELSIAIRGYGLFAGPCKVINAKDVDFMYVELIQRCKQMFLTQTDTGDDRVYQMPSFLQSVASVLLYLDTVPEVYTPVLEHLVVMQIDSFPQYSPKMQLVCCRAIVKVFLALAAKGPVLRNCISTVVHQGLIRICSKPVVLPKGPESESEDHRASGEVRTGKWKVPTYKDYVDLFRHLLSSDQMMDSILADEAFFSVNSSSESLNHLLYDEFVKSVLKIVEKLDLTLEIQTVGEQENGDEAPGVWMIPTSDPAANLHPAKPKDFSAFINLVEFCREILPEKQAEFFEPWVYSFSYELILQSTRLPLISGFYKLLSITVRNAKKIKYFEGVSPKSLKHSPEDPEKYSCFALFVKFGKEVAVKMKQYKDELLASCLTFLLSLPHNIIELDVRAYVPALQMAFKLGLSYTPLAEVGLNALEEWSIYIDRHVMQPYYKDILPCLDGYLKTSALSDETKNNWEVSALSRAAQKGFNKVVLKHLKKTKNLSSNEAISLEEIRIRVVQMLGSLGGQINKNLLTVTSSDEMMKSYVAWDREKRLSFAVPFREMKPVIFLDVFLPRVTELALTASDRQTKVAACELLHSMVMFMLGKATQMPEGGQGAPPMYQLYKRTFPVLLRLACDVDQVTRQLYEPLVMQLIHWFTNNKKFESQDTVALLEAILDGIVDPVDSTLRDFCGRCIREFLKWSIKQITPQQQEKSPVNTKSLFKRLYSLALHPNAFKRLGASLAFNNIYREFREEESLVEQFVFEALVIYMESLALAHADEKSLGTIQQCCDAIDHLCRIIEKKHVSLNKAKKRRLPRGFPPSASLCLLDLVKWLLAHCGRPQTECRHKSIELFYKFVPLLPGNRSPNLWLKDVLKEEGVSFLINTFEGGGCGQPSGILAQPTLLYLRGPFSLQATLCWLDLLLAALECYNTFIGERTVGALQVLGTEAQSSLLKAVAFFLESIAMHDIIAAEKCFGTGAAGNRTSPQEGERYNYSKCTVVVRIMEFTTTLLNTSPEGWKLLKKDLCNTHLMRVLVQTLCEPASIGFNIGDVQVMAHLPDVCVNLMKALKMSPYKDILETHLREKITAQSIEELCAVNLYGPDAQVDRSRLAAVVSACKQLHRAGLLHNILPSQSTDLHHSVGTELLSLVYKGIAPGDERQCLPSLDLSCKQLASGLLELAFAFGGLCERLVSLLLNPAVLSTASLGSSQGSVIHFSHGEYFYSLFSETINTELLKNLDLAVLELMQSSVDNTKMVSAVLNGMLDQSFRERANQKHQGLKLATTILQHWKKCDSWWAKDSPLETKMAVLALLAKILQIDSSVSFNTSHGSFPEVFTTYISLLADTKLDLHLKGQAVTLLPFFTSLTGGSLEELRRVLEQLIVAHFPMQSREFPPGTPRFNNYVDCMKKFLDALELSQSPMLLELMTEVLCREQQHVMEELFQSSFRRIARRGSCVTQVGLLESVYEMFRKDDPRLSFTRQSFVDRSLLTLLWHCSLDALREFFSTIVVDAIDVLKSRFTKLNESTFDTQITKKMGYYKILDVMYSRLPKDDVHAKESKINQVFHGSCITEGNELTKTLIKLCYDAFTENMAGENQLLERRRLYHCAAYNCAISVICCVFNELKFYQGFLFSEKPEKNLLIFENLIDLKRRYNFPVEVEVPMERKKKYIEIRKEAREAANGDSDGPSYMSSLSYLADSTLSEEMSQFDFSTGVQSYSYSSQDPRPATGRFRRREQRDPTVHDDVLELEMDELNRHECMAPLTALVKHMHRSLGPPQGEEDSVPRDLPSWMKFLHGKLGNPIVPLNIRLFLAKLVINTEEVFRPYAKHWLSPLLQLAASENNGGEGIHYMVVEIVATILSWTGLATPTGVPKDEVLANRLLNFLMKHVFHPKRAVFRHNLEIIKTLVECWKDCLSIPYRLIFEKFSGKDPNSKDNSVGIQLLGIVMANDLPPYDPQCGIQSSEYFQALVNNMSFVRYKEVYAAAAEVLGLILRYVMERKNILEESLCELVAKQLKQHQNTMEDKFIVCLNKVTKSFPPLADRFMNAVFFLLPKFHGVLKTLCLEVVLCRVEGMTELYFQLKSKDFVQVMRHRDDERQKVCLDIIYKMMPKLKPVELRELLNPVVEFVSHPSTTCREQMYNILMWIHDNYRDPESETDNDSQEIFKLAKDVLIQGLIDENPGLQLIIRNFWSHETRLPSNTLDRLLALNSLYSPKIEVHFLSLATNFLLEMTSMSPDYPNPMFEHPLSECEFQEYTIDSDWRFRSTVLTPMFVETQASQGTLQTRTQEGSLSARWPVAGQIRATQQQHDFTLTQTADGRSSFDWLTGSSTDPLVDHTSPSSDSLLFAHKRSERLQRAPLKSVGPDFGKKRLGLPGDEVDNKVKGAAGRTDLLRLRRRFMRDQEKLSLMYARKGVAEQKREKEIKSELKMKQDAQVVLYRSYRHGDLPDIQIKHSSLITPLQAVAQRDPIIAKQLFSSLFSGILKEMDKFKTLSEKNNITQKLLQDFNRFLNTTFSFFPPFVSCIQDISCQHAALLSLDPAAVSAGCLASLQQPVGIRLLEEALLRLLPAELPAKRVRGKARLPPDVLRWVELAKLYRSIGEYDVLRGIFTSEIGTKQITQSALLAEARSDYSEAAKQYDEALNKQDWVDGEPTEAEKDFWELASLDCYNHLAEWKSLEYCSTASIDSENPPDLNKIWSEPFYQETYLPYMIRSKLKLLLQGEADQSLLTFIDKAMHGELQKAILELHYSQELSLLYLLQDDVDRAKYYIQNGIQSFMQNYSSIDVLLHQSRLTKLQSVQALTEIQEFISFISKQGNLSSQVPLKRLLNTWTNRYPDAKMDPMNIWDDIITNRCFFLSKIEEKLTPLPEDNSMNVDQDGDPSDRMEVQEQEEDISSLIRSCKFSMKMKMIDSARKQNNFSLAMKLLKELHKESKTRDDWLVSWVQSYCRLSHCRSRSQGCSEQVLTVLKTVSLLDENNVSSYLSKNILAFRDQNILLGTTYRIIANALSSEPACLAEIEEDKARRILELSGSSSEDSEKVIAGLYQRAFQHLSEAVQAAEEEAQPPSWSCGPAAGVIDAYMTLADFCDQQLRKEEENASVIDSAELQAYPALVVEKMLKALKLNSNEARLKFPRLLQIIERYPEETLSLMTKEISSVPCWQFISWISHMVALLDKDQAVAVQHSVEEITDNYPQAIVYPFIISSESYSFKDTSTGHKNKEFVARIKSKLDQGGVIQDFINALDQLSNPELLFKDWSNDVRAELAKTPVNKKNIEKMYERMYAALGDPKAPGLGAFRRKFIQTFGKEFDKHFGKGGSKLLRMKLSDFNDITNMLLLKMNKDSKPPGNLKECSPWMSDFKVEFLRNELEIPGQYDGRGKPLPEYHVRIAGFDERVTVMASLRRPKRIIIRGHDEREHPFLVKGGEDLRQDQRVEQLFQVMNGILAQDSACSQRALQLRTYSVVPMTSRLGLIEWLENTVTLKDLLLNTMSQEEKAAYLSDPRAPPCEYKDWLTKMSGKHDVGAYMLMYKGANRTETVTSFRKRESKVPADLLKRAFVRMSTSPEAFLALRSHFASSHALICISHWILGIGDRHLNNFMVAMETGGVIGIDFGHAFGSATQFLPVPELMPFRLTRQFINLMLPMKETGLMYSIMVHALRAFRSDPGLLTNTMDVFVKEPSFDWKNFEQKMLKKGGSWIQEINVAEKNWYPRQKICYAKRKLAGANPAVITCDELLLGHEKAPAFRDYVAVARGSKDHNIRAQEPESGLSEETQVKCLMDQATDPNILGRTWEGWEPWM

Substance | binding
DNA-PKcs (from UniProt P78527 1-4128) | binds
Ku70/Ku80 complex (from UniProt P12956 1-609; P13010 1-732) | binds
